Results from PubChem BioAssay AID493014 (National Center for Advancing Translational Sciences (NCATS), 2011).
Hit rate of the full screen: of about 340,000 compounds, about 170 (0.05%) were called active. Inconclusive results, whose numbers are uncertain, are shown with a selection of clear calls. Calls follow the shape of the dose curve; as a rule, active = well fitted inhibition curve with a large enough effect in the signal ratio, with a control signal flat (not every such curve was filed as active); inconclusive = small, poorly fitted or top-dose-only effect, or effect the other way, or a change in a side signal; inactive = flat fitted curve, though single readings scatter; the % refers to the signal ratio. Where the call is inconclusive, the potency comes from a doubtful curve fit.

Assay: qHTS Assay to Find Inhibitors of Chronic Active B-Cell Receptor Signaling;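 as to activity change, negative = inhibition: plate controls were basal doxycycline-induced cells for no effect and cells given 10 µM MG132 for full effect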
Conditions: ABC-DLBCL IkBa-CBG/CBR reporter, luminescence ratio (green luciferase fused to IkBa over red control in TMD8 lymphoma cells), 4 h; activity change, negative = inhibition: at 46.1 µM (top of the series)
In short: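 Compounds up to 46 uM were incubated four hours with TMD8 cells whose green CBG68 luciferase is fused to IkappaBalpha; red CBR luminescence normalised the signal, and concentration-effect curves were fitted to fusion, red and ratio data.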
Potency is read from the fitted curve at half-maximal effect.

SMILES	activity change, negative = inhibition	Potency
CCOc1ccc2c(c1)C(=O)c1cc(OCC(=O)O)ccc1-2	inconclusive: 1.92%	–
O=C(c1ccccc1)N1CCN(CC#Cc2ccccc2)CC1	inconclusive: 0.766%	–
Cc1onc(-c2c(F)cccc2Cl)c1C(=O)NCCO	inactive: 2.81%	–
CC1C/C(=N\NC(=O)c2cccnc2)CC(C)(C)C1 (stereo not given)	–	inconclusive: 28.2 µM [falling, single point]
CCOc1cccc(-c2c(C(=O)N/N=C/c3cccs3)nnn2-c2nonc2N)c1	inconclusive: 0.402%	–
N#Cc1ccc(CSC2=NCCN2)cc1	–	inconclusive: 35.5 µM [falling, single point]
CCOc1cc(C(=O)Nc2ccc3c(c2)OCO3)ccc1OC(F)F	inconclusive: 2.69%	–
Cn1nc(-c2ccc(Cl)cc2)c2cc(C(=O)NCCCN3CCCC3)sc21	inconclusive: -4.86%	–
CC(C(=O)Nc1ccccc1)N1CCN(c2ccccn2)CC1 (stereo not given)	inconclusive: 3.46%	–
CCN(CC)CCOC(=O)c1ccc(NC(=O)c2ccc(Cl)c(S(=O)(=O)N3CCCCCC3)c2)cc1	inconclusive: -14.5%	–
NC(=O)C1CCN(C(=O)CSCc2ccccc2Cl)CC1	inconclusive: -21.8%	–
O=C(NC(=O)c1ccccc1)NC1(C(F)(F)F)OCCO1	inconclusive: -5.09%	–
Cc1ccc(S(=O)(=O)N2CC(=NN=C(N)N)C2)cc1	inconclusive: -4.83%	–
COc1ccccc1OCC(=O)Nc1ccccn1	–	inconclusive: 14.1 µM [falling, single point]
O=[N+]([O-])c1ccc(N/N=C/c2cccc(O)c2)cc1	inconclusive: 2.16%	–
CCn1c2ccccc2c2cc(NC(=O)CSc3nnc(-c4ccccc4OC)n3N)ccc21	inconclusive: -16.5%	–
Cc1occc1-c1nnc(SCC(=O)Nc2ccccc2)n1C	inconclusive: 9.05%	–
Cc1ccc(C(C)C)cc1OCCOCCN1CCCC1	–	inconclusive: 3.26 µM [rising, full curve, poor fit]
Cc1cc(/C([O-])=C(/C(=S)Nc2ccc(F)cc2)[n+]2ccccc2)c(C)n1Cc1ccccc1Cl	–	inconclusive: 12.6 µM [falling, partial curve, poor fit]
O=C(N/N=C/c1cnc2ccccc2n1)c1cccc(F)c1	inconclusive: -19.2%	–

SMILES	activity change, negative = inhibition	Potency
Cc1ccc2oc(C(=O)N(CCO)Cc3ccccc3)c(C)c2c1	inconclusive: 1.43%	–
CCC(=O)Nc1cccc(NC(=O)c2ccc(C)c([N+](=O)[O-])c2)c1	inconclusive: -15%	–
Cc1cc(NC(=O)c2ccc(S(=O)(=O)N3CCOCC3)cc2)nc2c1c(=O)oc1ccccc12	inconclusive: 6.13%	–
Cn1c(=O)c2c(nc(Oc3ccccc3N)n2C)n(C)c1=O	inconclusive: 6.39%	–
O=C(O)CCC/C=C\C[C@@H]1[C@@H](/C=C/[C@@H](O)COc2cccc(Cl)c2)[C@H](O)C[C@@H]1O	inconclusive: -0.708%	–
O=C(C[n+]1ccc(C(=O)NCc2ccccc2)cc1)c1ccc(Cl)cc1	inconclusive: -0.896%	–
CCOC(=O)C1CCN(c2c(C(=O)c3ccccc3)cnc3ccc(CC)cc23)CC1	inconclusive: -5.56%	–
CC(C)OC(=O)c1c(F)c(F)c(N2CCOCC2)c(F)c1F	inconclusive: 5.82%	–
COc1ccccc1C(=O)N1CCN(c2cccc(Cl)c2)CC1	–	inconclusive: 0.562 µM [falling, full curve, poor fit]
COc1ccc(-c2sc3cc(OC)c(OC)cc3c2C#CCCO)cc1	inconclusive: 2.85%	–
S=C(NCCCc1ccccc1)Nc1ccc(Br)cc1	inconclusive: -2.42%	–
CN(c1ccccc1)c1nc(N)c([N+](=O)[O-])c(Nc2cccc(F)c2)n1	inconclusive: 9.31%	–
CCc1ccc2[nH]c(=O)c(CN(Cc3nnnn3C3CCCC3)C3CCCCC3)cc2c1	inconclusive: 10.9%	–
O=S(=O)(/C(=C/c1ccc(C(F)(F)F)cc1)c1nc2ccccc2[nH]1)c1ccccc1	–	inconclusive: 4.11 µM [falling, single point]
Cc1cccc(NC(=O)/C(C#N)=C\c2cn(CC(=O)O)c3ccccc23)c1	inconclusive: -19.4%	–
COc1ccc(Br)cc1CNC(=O)Nc1cccs1	inconclusive: -4.21%	–
CCOC(=O)C(=Cc1ccc(OCc2ccc([N+](=O)[O-])cc2)c(OC)c1)C(=O)OCC	inactive: -6.7%	–
O=CC(=O)c1ccccc1	inconclusive: -29.9%	–
COc1ccc(N2CCN(CCOc3ccc4c(C)cc(=O)oc4c3)CC2)cc1	inactive: -7.71%	–
CC(C)/C(=N/Nc1ccccc1[N+](=O)[O-])c1ccccc1	inconclusive: 8.89%	–

Taken from the results shown (ten entries):
SMILES	activity change, negative = inhibition	Potency
O=C(O)CCC/C=C\C[C@@H]1[C@@H](/C=C/[C@@H](O)COc2cccc(Cl)c2)[C@H](O)C[C@@H]1O	inconclusive: -0.708%	–
O=C(C[n+]1ccc(C(=O)NCc2ccccc2)cc1)c1ccc(Cl)cc1	inconclusive: -0.896%	–
CCOC(=O)C1CCN(c2c(C(=O)c3ccccc3)cnc3ccc(CC)cc23)CC1	inconclusive: -5.56%	–
CC(C)OC(=O)c1c(F)c(F)c(N2CCOCC2)c(F)c1F	inconclusive: 5.82%	–
COc1ccccc1C(=O)N1CCN(c2cccc(Cl)c2)CC1	–	inconclusive: 0.562 µM [falling, full curve, poor fit]
COc1ccc(-c2sc3cc(OC)c(OC)cc3c2C#CCCO)cc1	inconclusive: 2.85%	–
S=C(NCCCc1ccccc1)Nc1ccc(Br)cc1	inconclusive: -2.42%	–
CN(c1ccccc1)c1nc(N)c([N+](=O)[O-])c(Nc2cccc(F)c2)n1	inconclusive: 9.31%	–
CCc1ccc2[nH]c(=O)c(CN(Cc3nnnn3C3CCCC3)C3CCCCC3)cc2c1	inconclusive: 10.9%	–
O=S(=O)(/C(=C/c1ccc(C(F)(F)F)cc1)c1nc2ccccc2[nH]1)c1ccccc1	–	inconclusive: 4.11 µM [falling, single point]
